# Results from paper PMC5996148.
# Where “and” joins values, the source holds several entries; their conditions need not be identical. Equal entries are not always repeated. This is one part of the list. For some assays here: Construct or isoform of the protein are uncertain.
# Experiments:
# Experiment in all cases: protein microarray (ProtoArray v5.0), streptavidin-Alexa Fluor 647
# Details in all cases: 3'-biotin; 20 mM Tris (pH 7.5), 5 mM MgCl2, 100 mM KCl, 0.1% Tween-20, A/T-rich and random oligonucleotide blockers; temperature not stated; high values mean tight binding
# C20orf160 (human) = system: C20orf160 (human)
# C20orf18 (human) = system: C20orf18 (human)
# C20orf3 (human) = system: C20orf3 (human)
# C20orf7 (human) = system: C20orf7 (human)
# C20orf70 (human) = system: C20orf70 (human)
# C21orf2 (human) = system: C21orf2 (human)
# C21orf33 (human) = system: C21orf33 (human)
# C21orf51 (human) = system: C21orf51 (human)
# C21orf7 (human) = system: C21orf7 (human)
# C21orf84 (human) = system: C21orf84 (human)
# C21orf91 (human) = system: C21orf91 (human)
# C2orf18 (human) = system: C2orf18 (human)
# C2orf33 (human) = system: C2orf33 (human)
# C2orf34 = C2orf34 (UniProt Q7Z624)
# C2orf43 (human) = system: C2orf43 (human)
# C2orf7 = C2orf7 (UniProt Q9BSG0)
# C3orf45 (human) = system: C3orf45 (human)
# C3orf59 = target: T1, C3orf59 (UniProt Q8IYB1)
# T1 sequence: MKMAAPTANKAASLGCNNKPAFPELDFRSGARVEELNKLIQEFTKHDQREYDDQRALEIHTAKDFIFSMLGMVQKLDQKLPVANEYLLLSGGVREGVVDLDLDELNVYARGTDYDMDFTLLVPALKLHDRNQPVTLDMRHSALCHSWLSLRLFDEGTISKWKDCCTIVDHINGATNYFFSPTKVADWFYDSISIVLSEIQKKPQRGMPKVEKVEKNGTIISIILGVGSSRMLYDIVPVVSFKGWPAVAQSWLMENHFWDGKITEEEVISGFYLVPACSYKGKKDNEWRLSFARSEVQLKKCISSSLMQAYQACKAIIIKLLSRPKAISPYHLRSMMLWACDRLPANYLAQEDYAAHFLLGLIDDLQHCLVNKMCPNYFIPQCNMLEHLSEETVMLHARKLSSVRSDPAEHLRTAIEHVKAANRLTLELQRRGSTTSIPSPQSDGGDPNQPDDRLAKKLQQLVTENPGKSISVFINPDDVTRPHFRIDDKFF
# C4BPB (human) = system: C4BPB (human)
# [1] = system: C4b-binding protein beta chain (human)
sequence,measurement,setting,value
GGGAGGCTGAGGCAGG [G4-1 biotinylated (PQS2)],binding signal,C20orf160 (human),-0.355 z-score
same,binding signal,C20orf18 (human),-0.31 z-score
same,binding signal,C20orf3 (human),-0.348 z-score
same,binding signal,C20orf7 (human),-0.297 z-score
same,binding signal,C20orf70 (human),-0.34 z-score
same,binding signal,C21orf2 (human),-0.325 z-score
same,binding signal,C21orf33 (human),-0.326 z-score
same,binding signal,C21orf51 (human),-0.33 z-score
same,binding signal,C21orf7 (human),-0.344 z-score
same,binding signal,C21orf84 (human),-0.327 z-score
same,binding signal,C21orf91 (human),-0.341 z-score
same,binding signal,C2orf18 (human),-0.337 z-score and -0.314 z-score
same,binding signal,C2orf33 (human),-0.355 z-score
same,binding signal,C2orf34,-0.319 z-score and -0.284 z-score
same,binding signal,C2orf43 (human),-0.359 z-score
same,binding signal,C2orf7,-0.322 z-score
same,binding signal,C3orf45 (human),-0.331 z-score
same,binding signal,C3orf59,-0.306 z-score
same,binding signal,C4BPB (human),-0.329 z-score
same,binding signal,[1],-0.332 z-score

# Pulled one by one from the list above, two records:
sequence,measurement,setting,value
GGGAGGCTGAGGCAGG [G4-1 biotinylated (PQS2)],binding signal,C2orf43 (human),-0.359 z-score
same,binding signal,C21orf7 (human),-0.344 z-score
